# Library screen at single concentrations

Values are the deposited “Percent Effect”, in %.
How 0% and 100% were set is not recorded. Most values in the screen are low, and negative values occur.
Compounds were drawn at random from those tested, without regard to their results.

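Whole-parasite assay of Trypanosoma brucei over 72 hours; the read-out is not stated. Compounds at 30 µM. Direction is inferred from retests: higher values go with stronger inhibition. Values scatter widely below zero; nearly all retest evidence comes from the higher of the two concentrations used. About 64,000 compounds were tested under these conditions; 1.5% (about 940) showed 50% or more at least once.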

With Cc1ccccc1C(C(=O)N(C)CCc1cn[nH]c1)N(C)C (configuration not stated) the screen gave -13.15%.
With O=S(=O)(C1CC1)N1CCOC2(CCCN(c3ccccc3)C2)C1 (configuration not stated) the screen gave -54.5%.
With CN1CCN(CCCNC(=O)C2CCCCC2)CC1 the screen gave -7.817%.
With C1CCC(c2nnc3sc(C4CCOC4)nn23)C1 (configuration not stated) the screen gave 14.23%.
With CCC(=O)NC(Cc1cc(N(C)C)nc(C2CC2)n1)c1ccccc1 (configuration not stated) the screen gave 13.14%.
With CN1CCN(c2ccc3ccc(C(=O)N4CCCCO4)cn23)CC1.O=C(O)C(F)(F)F the screen gave -47.84%.
With CC(NC(=O)NCCCN(C)S(C)(=O)=O)c1ccc(C#N)cc1 (configuration not stated) the screen gave -12.93%.
With COC1CCN(C(=O)Cc2csc(-c3ncccn3)n2)CC1 the screen gave 9.896%.
With CCCn1[nH]cc/c1=N\C(=O)CN1CCn2c(nnc2C2CC2)C1 the screen gave -40.19%.
With CCC[C@H]1CN(Cc2ccc(N(C)C)nc2)C[C@@H]1NC(=O)CO the screen gave -9.504%.
With O=C(O)C(F)(F)F.[H][C@@]12CCN(S(=O)(=O)c3cccs3)C[C@]1([H])[C@@H](CN(C)C)OC2 the screen gave -43.02%.
With CN1CCC(N(C)C[C@H]2CC[C@@H](Cc3ccc4c(cnn4C)c3)O2)CC1 the screen gave 7.852%.
With COc1nccc(N2CCN(Cc3ccc(C)cc3)C(=O)C2)c1C#N the screen gave 8.607%.
With CN1CCCC(CCC(=O)N2CCc3c(nc(CC4CC4)[nH]c3=O)C2)C1 (configuration not stated) the screen gave -125.7%.
With Cn1cc(CN2CCCC23CCN(C(=O)c2ccncc2)CC3)cn1.O=C(O)C(F)(F)F the screen gave 9.132%.
With CN1CCN(Cc2noc(CC3CCc4ccccc43)n2)CC1 (configuration not stated) the screen gave -18.13%.
With Cl.O=C(NCCn1nc(C2CCNC2)c2cccnc21)C1CCC1 (configuration not stated) the screen gave -2.901%.
With Cc1nc(CSCCC(=O)NCc2ccc(N(C)C)cc2)cs1 the screen gave 4.149%.
With CS(=O)(=O)Nc1cnn(Cc2cccc(Cl)c2)c1 the screen gave -27.33%.
With O=C(NCc1nncn1C1CC1)C1(c2ccc(F)cc2)CCCC1 the screen gave -10.85%.
With CC1CCCCN1C(=O)COc1nc(Cc2ccc(F)cc2)no1 (configuration not stated) the screen gave -6.49%.
With CC(C)OCc1nn(CC2CC2)c2c1CN(Cc1ccco1)CC2.O=C(O)C(F)(F)F the screen gave -16.06%.
With O=C(c1ccc2c(c1)OCO2)N1CCC[C@]2(C[C@H](OCC3CC3)CO2)C1 the screen gave 15.9%.
With CCC(C)NC(=O)CCn1ccc(C)n1 (configuration not stated) the screen gave 8.091%.
With CC(NCc1cccc(S(=O)(=O)N(C)C)c1)c1cccnc1 (configuration not stated) the screen gave -27.08%.
With Cc1noc(C)c1-c1cncc(C2CCCN2Cc2nccs2)n1 (configuration not stated) the screen gave 18.22%.
With CSCc1cccc(NC(=O)N2CCC(N3CC=CC3)C2)c1 (configuration not stated) the screen gave -8.543%.
With COCCN1CCN(S(C)(=O)=O)Cc2ccc(C)nc21.O=C(O)C(F)(F)F the screen gave -28.84%.
With CCn1cc(CN2CCC(CNC(C)=O)CC2)cc1C#N the screen gave -31.78%.
With Cc1cnc(NC(C)Cc2cnccn2)nc1N(C)C (configuration not stated) the screen gave 0.887%.
With CCS(=O)(=O)CCN1CCN(C(C)c2cccnc2)CC1 (configuration not stated) the screen gave -31.04%.
With Cc1csc(C(=O)N2CCC(S(C)(=O)=O)C2)c1 (configuration not stated) the screen gave 13.27%.
With [H][C@]12CCCCN1CCC[C@H]2CNC(=O)Cn1ccc2ccccc21 the screen gave -0.4997%.
With Cc1ccc(CC2COCCN(S(C)(=O)=O)C2)nc1 (configuration not stated) the screen gave -2.673%.
With c1ccc(C(OCCNC2CCc3ncnn3C2)c2ccccc2)cc1 (configuration not stated) the screen gave 0.8572%.
With CC(C)c1cc(CN2CCC(N)CC2)on1 the screen gave -7.747%.
With O=C(NCc1nncn1C1CC1)Nc1ccc(OC2CCC2)c(F)c1 the screen gave -14.85%.

3 of the entries, repeated:

SMILES,percent effect
c1ccc(C(OCCNC2CCc3ncnn3C2)c2ccccc2)cc1 (configuration not stated),0.8572
CS(=O)(=O)Nc1cnn(Cc2cccc(Cl)c2)c1,-27.33
CCn1cc(CN2CCC(CNC(C)=O)CC2)cc1C#N,-31.78

Measurements from “University of Dundee, Small-Polar-MMV Screening Library” (2021), ChEMBL document CHEMBL3988442.